Experimental data reported in publication PMC12720343.
These are yes or no findings as the source states them, for the method shown. Binding seen in cells or lysates may run through a third protein. Some entries that bind do so weakly or less than the wild type. Sequences can lack the tags named with a protein.

Experiments:
Experiment in all cases: pull-down; cells producing His-SpoIIQ_(44-283) variants mixed with cells producing SpoIIIAH_(26-218)-S, lysed together (50 mM Tris-HCl pH 8.0, 150 mM NaCl), loaded on Ni Sepharose HP, washed with 40 mM imidazole, eluted with 1 M imidazole; Western blot against S-tag and His-tag
[1] = molecular target: T1, His-SpoIIQL118F_(44-283) (Bacillus subtilis) (UniProt P71044)
T1 sequence: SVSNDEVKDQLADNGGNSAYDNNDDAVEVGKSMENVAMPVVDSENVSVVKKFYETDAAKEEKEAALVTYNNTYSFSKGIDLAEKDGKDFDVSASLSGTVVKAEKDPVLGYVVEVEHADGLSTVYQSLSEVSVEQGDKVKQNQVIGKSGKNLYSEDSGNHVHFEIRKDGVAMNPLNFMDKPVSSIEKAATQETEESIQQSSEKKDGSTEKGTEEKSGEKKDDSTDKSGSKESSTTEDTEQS

[2] = molecular target: T2, His-SpoIIQ_(44-283) (Bacillus subtilis) (UniProt P71044)
T2 sequence: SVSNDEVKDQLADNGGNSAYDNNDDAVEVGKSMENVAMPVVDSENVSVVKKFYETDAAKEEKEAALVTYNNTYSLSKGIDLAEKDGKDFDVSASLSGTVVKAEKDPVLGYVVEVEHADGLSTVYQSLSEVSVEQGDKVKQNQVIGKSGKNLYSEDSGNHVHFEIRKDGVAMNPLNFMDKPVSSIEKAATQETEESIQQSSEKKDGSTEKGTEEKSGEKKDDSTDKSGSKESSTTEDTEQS

[3] = molecular target: T3, His-SpoIIQL109/118E_(44-283) (Bacillus subtilis) (UniProt P71044)
T3 sequence: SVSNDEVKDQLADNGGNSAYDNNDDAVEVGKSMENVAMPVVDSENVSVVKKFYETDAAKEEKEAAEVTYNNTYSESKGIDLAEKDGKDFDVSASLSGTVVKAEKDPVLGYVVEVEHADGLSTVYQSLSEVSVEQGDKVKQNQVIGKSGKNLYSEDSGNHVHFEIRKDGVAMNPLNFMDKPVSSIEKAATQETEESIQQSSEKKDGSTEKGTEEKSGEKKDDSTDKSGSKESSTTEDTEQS

B1: SpoIIIAH_(26-218)-S (domain or fragment, UniProt P49785 26-218)
chain: SPESKNAVQMQSEKSASDSGEVATEKAPAKQDTKEKSGTETEKGKEDGTKGTKDSSADKETSAEASEKGTVVTETADDDLFTTYRLDLEDARSKEREELNAIVSSDDATAKEKSEAYDKMTALSEVEGTEKQLETLIKTQGYEDALVNAEGDKINITVKSDKHSKSKATAIIDLVAKEIKTMKDVAVTFEPSK
binding [1]: binds
binding [2]: binds
binding [3]: no binding
